The target in this assay is TPLATE anchor (1062-1177) (Arabidopsis) (UniProt F4J8D3). Kind of assay: SEC-MALS. On the technique in general: Size exclusion chromatography separates by hydrodynamic size, large species first.

Amino acid sequences for entries named in this document (tags omitted). Residues count along the entry.
UniProt F4J8D3, residues 1062-1176: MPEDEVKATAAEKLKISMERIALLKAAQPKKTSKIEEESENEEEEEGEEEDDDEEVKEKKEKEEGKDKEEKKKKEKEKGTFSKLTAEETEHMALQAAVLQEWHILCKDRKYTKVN

Results are given in words; binding and its absence hold for the method and conditions named.

Binding data for one substance are collected here from article doi:10.1101/2020.08.13.249276.

As to “TPLATE anchor (1062-1177) (from UniProt F4J8D3 1062-1176) (domain or fragment)”, the binding entry is “no binding (tested: 2.1 mg/ml)”.
